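Luminescence from an EWS-FLI1 target-promoter (NR0B1) reporter, set against a CMV-promoter reporter, two days after silencing single genes in TC32 Ewing sarcoma cells. Each siRNA was applied at 20 nM. A z-score of the log NR0B1-over-CMV signal, less the median of siRNAs with the same seed; more negative means a stronger specific loss of the NR0B1 reporter.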

This is part of the screen; most of the strongest results are not listed here. Sequences are the guide (antisense) strand, without overhang.

| strand | gene | seed-corrected z-score |
|---|---|---|
| `UAACCAACAGAUGCCGAGC` | SIRT3 | -0.4783 |
| `UUGUAGAACAUGAUGGUCC` | C1R | 0.2458 |
| `UGAGGAAACACGGGUUCUC` | CENPBD1P1 | -0.2106 |
| `UUCAAGGUCAGGGAAUAGC` | LOC731075 | 0.2549 |
| `UACCUUCCCAAUCAGCGGC` | GAA | 0.5626 |
| `UCACCGUCCUGCACGAUCU` | RBP1 | 0.2068 |
| `UAUCGUAAAACUCAGCUGG` | ZC3H6 | -0.5367 |
| `UGAAUCACCACGGCUUUGG` | HABP4 | -0.2875 |
| `UCGGUAGUGACAUUAGAUG` | NDST3 | -0.4617 |
| `UGUUUUAGUAGGUCUGCGG` | MAP3K8 | -1.051 |
| `UUUCAUACAAGGACGUGUC` | OR2T11 | -0.6818 |
| `AAAGUAGAUAGCGGUUCCC` | RGL3 | -0.4597 |
| `UCCUCGUCUAUGUUCUCUC` | RYR1 | -1.762 |
| `UACUAAUGUGGUUUGUCCC` | TRIM33 | -0.8223 |
| `AAGAGGAAACAGUCCGUGC` | OR10Q1 | -0.8195 |
| `UCUCCAUAAAGGUUCUUCC` | VPS13C | 0.9326 |
| `AAAGUCUAGAAUCUCAUCC` | AP2M1 | 0.2728 |
| `UCAGAGUAGAUUUUACGAG` | SPATA7 | 0.003083 |
| `UGCUCUAAAACAACCGCUU` | UBR5 | -0.942 |
| `ACUCGGUUAAAAAUCGUCU` | LOC642366 | 1.343 |
| `UUUCUUAAGAUUGUUUUCC` | ATOH7 | 0.1377 |
| `UUUGUUGCGAUGAUACAAG` | RBBP4 | 0.8246 |
| `UUCCUCAACAGAUAACUGG` | CDCA3 | -0.1253 |
| `UAACUAUAGGGUAUUCUGC` | PDC | 0.3091 |
| `UCAUGUUAAAGAGCGGUGG` | TAOK2 | -1.772 |
| `UUUGCUCCAAUCAGGGACU` | DGCR2 | 1.592 |
| `UUGUCUCGCAGUUUCUUGG` | CNGA2 | 0.2498 |
| `AAUGACUUAAAGGCACUGG` | MVB12A | -1.724 |
| `UGACUAAUCUGAUCUCCGC` | NCL | -0.5967 |
| `UUUCAGGCUCUGAAUAGCU` | ATP5L | -0.003169 |
| `AAUGUUCCGCCGACAGUUC` | MFAP3L | -0.542 |
| `UUCAGGAUUCUCGUUGUUG` | TSPYL2 | 0.4122 |
| `AUCUGUUGUUCUAUCAUCC` | FMO2 | -0.309 |
| `UGUAUUUCUGAUUCGGUGC` | HERPUD2 | -1.449 |
| `UUCGGUUGCUCCAGAAUGC` | SETD3 | -0.2078 |
| `UGUUAGACAAGUCCAGCUC` | NLRC5 | 0.2227 |
| `AAAUGGACACCCAUCAUCA` | DMRT3 | 0.6161 |
| `UCUAGUAUUAUAACUACUG` | SLC30A4 | -0.1751 |
| `AGCUCUUGUACCUCUAGGC` | WFDC21P | -1.132 |
| `UCUGUGAAGAGGUACACGC` | TMEM161A | 0.09719 |
| `UUUCAUUGCAGUUCACUGG` | PSME1 | 0.3528 |
| `UAACCUGCUGUCCAGCUCC` | GPR84 | -0.6767 |
| `UCUCAGUCUCUUAAGGUCC` | MCU | 0.7833 |
| `UGUAGAUCUUCUGGAAGCC` | NCS1 | -0.6145 |
| `AAAGUUGCGAGGAAGCUUC` | CCL4 | -1.299 |
| `UUCGAUUCUUUGACAAAGG` | DNAJC9 | 0.1649 |
| `UGACGAUUUUGCGAACUCC` | NRK | 0.3398 |
| `UUGGAAUUUGGAUAGAAUC` | DMD | -0.04633 |
| `UUUGUUAAAGUAGAAGUUC` | HS3ST1 | 0.4352 |
| `UUGACUUGCACGUAGAGCC` | ETNK2 | -0.7673 |
| `AAACUAAGCCGCUUGUCUC` | GAB3 | 1.041 |
| `UACCUUUCAAUGUCCUGCU` | CCDC57 | 0.7178 |
| `AAAGUGACUCCUUGGUUUC` | NDUFAF3 | 0.7894 |
| `AAGGACAACACGUAGCAGG` | CYTH4 | 0.8115 |
| `UUUUCGGACAUCUUCGCUC` | MIPEP | 0.05159 |
| `AACUCCAUCAUGAUCUUCU` | CHMP2A | 0.7945 |
| `UACUUGCACAGAGUGGUUA` | VEGFB | -0.1402 |

The results are deposited in PubChem (AID1159506; NCATS, 2015).